# In paper PMC5781259:
# Protein sequences, listed by entry. Tags and fused reporters are not part of them. Residues count along the entry.
# UniProt P33424: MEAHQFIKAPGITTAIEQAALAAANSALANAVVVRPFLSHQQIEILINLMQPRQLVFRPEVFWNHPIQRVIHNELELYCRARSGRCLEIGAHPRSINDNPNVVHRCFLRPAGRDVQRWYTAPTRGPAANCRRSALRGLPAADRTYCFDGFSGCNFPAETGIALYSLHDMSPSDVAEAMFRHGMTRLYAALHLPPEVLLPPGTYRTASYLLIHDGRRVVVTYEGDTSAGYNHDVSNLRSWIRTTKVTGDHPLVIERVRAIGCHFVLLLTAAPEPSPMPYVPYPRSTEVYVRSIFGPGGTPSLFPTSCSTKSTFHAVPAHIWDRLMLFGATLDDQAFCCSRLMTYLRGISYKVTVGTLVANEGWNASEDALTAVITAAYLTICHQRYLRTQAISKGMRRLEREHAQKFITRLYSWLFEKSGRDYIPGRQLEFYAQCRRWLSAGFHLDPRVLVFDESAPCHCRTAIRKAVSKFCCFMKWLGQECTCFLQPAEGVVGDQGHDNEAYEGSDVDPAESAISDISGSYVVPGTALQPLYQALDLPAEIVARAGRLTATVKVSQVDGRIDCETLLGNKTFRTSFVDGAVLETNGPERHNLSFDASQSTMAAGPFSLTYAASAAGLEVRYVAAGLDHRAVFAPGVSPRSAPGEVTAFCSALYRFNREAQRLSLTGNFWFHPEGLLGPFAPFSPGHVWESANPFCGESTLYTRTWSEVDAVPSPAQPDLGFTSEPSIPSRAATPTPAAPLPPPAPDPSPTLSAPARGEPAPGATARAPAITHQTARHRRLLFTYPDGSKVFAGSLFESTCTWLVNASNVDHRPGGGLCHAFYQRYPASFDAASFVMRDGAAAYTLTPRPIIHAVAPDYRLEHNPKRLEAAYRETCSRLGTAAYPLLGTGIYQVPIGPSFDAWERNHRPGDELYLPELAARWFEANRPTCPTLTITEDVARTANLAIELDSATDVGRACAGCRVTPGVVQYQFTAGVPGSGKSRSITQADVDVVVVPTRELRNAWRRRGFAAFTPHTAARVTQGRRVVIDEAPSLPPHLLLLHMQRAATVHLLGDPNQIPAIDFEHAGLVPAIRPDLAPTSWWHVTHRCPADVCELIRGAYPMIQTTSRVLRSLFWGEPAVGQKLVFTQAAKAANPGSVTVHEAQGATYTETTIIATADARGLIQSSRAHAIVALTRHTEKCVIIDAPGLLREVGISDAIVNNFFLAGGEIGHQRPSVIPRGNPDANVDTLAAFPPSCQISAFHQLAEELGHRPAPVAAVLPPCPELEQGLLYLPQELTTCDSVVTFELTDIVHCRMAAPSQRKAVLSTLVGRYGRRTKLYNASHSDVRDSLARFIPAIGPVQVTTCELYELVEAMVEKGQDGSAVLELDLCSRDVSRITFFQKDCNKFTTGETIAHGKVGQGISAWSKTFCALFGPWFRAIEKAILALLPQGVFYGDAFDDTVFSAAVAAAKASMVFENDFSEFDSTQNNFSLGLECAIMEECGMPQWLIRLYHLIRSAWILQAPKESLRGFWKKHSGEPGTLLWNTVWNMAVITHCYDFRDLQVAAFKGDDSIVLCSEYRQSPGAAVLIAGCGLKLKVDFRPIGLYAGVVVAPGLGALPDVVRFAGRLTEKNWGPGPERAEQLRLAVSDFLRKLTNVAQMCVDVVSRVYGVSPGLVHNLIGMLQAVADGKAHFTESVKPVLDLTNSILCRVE
# UniProt P33426, residues 20-660: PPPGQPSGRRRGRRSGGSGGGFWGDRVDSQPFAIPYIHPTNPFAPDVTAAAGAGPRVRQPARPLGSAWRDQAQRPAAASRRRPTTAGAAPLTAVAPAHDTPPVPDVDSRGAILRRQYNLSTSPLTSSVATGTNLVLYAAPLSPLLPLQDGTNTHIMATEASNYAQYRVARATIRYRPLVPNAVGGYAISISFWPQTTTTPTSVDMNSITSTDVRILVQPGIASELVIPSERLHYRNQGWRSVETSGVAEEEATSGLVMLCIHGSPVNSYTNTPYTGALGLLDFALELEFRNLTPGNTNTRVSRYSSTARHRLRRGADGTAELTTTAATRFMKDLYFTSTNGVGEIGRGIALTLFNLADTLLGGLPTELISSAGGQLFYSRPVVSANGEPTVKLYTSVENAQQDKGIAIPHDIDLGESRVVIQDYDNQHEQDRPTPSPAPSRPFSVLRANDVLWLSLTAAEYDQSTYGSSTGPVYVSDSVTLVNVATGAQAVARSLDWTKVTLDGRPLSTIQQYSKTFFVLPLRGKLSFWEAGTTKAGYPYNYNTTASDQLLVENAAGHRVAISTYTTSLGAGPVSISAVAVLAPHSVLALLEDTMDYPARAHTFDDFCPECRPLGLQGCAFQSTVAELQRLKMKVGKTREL
# UniProt P68104: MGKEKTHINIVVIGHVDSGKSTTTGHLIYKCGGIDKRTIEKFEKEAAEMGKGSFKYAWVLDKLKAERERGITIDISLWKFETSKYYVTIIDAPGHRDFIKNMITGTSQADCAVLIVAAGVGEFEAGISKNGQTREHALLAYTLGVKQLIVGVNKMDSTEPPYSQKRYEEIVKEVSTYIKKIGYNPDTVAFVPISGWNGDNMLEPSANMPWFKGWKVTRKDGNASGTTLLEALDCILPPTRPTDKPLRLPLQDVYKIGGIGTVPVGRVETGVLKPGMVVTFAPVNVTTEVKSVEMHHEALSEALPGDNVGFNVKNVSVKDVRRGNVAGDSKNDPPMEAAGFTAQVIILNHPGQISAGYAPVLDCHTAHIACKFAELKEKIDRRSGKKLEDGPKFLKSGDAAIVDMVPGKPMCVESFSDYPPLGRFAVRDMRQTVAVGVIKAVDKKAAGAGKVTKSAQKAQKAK
# UniProt P06730: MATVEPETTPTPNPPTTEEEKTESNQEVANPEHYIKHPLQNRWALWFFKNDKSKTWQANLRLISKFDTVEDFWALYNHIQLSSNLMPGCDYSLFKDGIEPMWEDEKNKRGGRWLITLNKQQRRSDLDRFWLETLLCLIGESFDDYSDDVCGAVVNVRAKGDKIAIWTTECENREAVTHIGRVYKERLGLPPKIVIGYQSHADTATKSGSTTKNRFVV
# UniProt Q15365: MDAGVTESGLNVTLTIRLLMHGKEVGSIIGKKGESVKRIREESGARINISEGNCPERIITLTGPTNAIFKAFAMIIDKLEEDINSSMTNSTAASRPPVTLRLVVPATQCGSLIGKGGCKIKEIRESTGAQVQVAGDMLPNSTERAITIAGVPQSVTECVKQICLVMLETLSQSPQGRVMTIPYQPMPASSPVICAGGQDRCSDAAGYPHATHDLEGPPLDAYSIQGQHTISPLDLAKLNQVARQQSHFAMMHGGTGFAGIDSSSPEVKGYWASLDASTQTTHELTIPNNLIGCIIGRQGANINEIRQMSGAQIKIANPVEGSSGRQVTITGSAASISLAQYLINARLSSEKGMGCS
# UniProt P07437: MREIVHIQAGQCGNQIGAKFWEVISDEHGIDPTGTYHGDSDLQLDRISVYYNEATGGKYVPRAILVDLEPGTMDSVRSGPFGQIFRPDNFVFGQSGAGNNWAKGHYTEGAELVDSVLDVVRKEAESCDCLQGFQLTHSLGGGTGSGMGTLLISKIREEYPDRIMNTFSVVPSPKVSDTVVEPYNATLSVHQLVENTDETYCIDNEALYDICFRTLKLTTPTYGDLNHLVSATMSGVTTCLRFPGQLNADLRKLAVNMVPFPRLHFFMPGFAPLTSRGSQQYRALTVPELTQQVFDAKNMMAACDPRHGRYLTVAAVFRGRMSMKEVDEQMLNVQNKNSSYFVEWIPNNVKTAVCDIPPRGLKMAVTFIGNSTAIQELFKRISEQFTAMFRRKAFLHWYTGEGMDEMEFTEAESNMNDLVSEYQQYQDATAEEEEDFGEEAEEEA
# UniProt Q14240: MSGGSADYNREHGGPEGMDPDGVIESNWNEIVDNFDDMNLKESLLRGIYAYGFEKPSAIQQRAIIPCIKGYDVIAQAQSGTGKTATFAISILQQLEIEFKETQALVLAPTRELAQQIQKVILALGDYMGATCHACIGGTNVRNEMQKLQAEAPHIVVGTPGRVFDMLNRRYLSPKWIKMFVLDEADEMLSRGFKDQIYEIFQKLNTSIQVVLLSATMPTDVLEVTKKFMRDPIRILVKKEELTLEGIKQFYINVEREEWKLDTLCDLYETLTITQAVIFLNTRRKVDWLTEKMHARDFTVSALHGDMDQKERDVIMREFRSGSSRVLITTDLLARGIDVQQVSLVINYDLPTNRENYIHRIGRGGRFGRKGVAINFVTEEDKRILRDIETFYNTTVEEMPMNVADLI
# Results are given in words; binding and its absence hold for the method and conditions named. Binding seen in cells or lysates may run through a third protein. Some results given as binding are weak or reduced against the parent protein; the word gives no strength.
# How the values were obtained:
# [1] = molecular target: ORF1-Flag, g-1 HEV ORF1 polypeptide made by in vitro transcription-translation (hepatitis E virus genotype 1) (UniProt P33424); experiment: pull-down
# [2] = molecular target: ORF1-Flag, g-1 HEV ORF1 polypeptide expressed in Huh7 (hepatitis E virus genotype 1) (UniProt P33424); experiment: co-IP
# [3] = molecular target: ORF2-Flag, g-1 HEV ORF2 protein expressed in Huh7 (hepatitis E virus genotype 1) (UniProt P33426); experiment: co-IP
Substance,binding [1],binding [2],binding [3]
eEF1A1 in Huh7 extract (from UniProt P68104 1-462),binds,binds,
eIF4E in Huh7 extract (from UniProt P06730 1-217),binds,binds,
PCBP1 in Huh7 extract (from UniProt Q15365 1-356),,,binds
TUBB in Huh7 extract (from UniProt P07437 1-444),binds,binds,
eIF4A2 in Huh7 extract (from UniProt Q14240 1-407),binds,binds,
